{
  "source": "patent US20160046678A1",
  "about": "(ZYNGENIA, published 2016)",
  "molecular_target": "T1, Angiopoietin-2 (Ang2) (human, UniProt O15123 19-496, biotin label in Examples 22-24)",
  "T1 construct": "also called rhAng2; recombinant Ang2",
  "T1 sequence (looked up)": "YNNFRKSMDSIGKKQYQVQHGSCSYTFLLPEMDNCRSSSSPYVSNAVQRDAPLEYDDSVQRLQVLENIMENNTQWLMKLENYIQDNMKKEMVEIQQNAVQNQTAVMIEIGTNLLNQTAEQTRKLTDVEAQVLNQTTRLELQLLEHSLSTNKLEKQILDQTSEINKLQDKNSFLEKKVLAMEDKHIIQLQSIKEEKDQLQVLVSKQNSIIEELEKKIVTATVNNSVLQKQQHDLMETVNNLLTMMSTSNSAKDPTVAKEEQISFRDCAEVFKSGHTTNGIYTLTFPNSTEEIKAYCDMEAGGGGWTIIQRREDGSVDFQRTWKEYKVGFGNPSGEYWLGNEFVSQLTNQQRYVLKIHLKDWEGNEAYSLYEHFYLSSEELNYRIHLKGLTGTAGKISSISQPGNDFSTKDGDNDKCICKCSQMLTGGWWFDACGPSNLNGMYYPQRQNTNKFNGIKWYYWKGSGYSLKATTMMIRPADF",
  "assay": "Example 48, method not detailed",
  "note": "Results are given in words; binding and its absence hold for the method and conditions named. Some binding calls cover weakened binding; strength is not graded here.",
  "data": [
    {"binder": "SLTTFIDCYFYPNPPHCY", "note": "[ANG183]", "values": [
      {"measurement": "binding", "value": "binds"}
    ]}
  ]
}
